One molecule from patent US20200181245A1 (University of California, published 2020) can be followed below.

Protein sequences, listed by entry. Tags and fused reporters are not part of them. Lines headed by an entry give the natural chain unless they say otherwise; changes in a name come on top.
UniProt P10637: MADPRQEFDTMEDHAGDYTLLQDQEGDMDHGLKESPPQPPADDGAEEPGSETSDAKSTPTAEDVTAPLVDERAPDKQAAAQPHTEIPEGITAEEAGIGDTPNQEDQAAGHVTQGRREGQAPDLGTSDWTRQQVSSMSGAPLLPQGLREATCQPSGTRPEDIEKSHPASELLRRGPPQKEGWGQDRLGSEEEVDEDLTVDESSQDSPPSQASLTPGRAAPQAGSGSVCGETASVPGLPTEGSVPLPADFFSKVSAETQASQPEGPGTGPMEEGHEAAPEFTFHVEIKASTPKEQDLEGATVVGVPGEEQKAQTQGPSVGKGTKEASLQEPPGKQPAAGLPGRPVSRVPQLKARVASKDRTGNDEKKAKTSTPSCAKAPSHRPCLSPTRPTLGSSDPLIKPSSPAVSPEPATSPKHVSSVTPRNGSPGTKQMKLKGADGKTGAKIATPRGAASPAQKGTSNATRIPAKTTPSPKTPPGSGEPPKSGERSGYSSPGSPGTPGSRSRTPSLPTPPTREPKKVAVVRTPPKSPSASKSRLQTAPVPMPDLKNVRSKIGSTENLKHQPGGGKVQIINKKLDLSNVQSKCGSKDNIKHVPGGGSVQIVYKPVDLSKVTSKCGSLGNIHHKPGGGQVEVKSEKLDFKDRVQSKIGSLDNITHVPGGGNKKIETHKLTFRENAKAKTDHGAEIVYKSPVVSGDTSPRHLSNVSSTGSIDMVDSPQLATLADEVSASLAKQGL

No constants are given. Whether binding was seen depends on the method and setting.

The target of test [1] is endogenous mouse Tau (4RTau of adult mouse neurons; non-tg mice) (mouse) (UniProt P10637). As to the kind of experiment: immunostaining of mouse neuronal cells.
In test [2] the target is 4RTau expressed in 4RTau tg mice. As to the kind of experiment: immunostaining of brain sections from non-tg, 3RTau tg and 4RTau tg mice.

B1: 3RT single chain antibody (Clone 5F10) (scFv)
scFv: MEQVNLRESGAEVKKPGASVKVSCKVSGYTFTGYYMHWVRQAPGQGLEWMGWINSNSGATKYAQKFQGRVTMTRDTSITTAYMELSSLRSDDTAVYYCARGARDGYGFDYWGQGTLVTVLAGGGGSGGGGSGGGGSGAPSYVLTQPPSASGTPGQRVTISCSGGSSNIGSNAVSWYQQLPGTAPKLLIFTNDQRPSGVPDRFSGSKSGTSAPLAISGLQSEDESDYYCATWDDSLNGWVFGGGTKVTVRS
notes: Human scFv from a phage display library; It was expressed from mammalian scFV cassettes; also called 3RT scFV; 3RTau scFV
As for B1, the binding entry in test [1] and in test [2] was “no binding” throughout.
